Results are given in words; binding and its absence hold for the method and conditions named. Binding seen in cells or lysates may run through a third protein. Binding calls can cover weak binding; strength is not graded here.
B1: Z-DNA binding protein 1 (protein, UniProt Q8VDA5 1-409)
chain: MAEASVDLGTGDNLEQKILQVLSDAGSPVQIDQLLKKLQVPKKILNQVLYRLKKEGRVSSPAPATWSLGGDGASGDGAPEIPEDSAAQPSLEERILRFLETKGPQRALHIAKALGMTTAKEVNPILYSMRNKHLLTVSDTQMWTIYRSSQEGQERACSGVGQESPAVIYQQNPINMICQQGPNSLISISNSKAIQIGHGNVMSRQTICGDPGPGTPHHAPLPVLEDAAAQDTPPGTHGAQLIHLNKSMLRRVQLGHGNEMNLERDPVEHPIFSFSSSPPESTTTADPETAFNMQTPEPGPHPEGGTTQIVHIKSCLLEDTTVGNNNKMTIHRRSKGGTKESADSQELKEDTGASSEATPPRSCLHTPSDSTLLTSELTAMALGDGSPQITESMLREDEVQAAETCQTQD
B2: cysteinyl aspartate specific protease 8 (enzyme, UniProt Q9JHX4 1-482)
chain: MDFHSCLYDIAERLGNEELAALKFLCLDHIPQKKQESINDVLVLFQRLQEEGMLEEDNLSFLKELLFHISRRDLLSRVLKSSPEEMVRELQVLGKAQVSAYRVMLFKLSEDMDKEDLKSFKFLLITEIPKCKLQDNSSLLDIFVEMEKRTILAENNLVTLKSICFRVNRSLLGRIDDYERSSTERRMSTEGGEELPVSVLDEVTIKMQDMWDSPGEQESESLNSDNVYQMKSKPRGYCLIFNNNNFSKAREDIPKLSNMRDRKGTNYDEEALSKTFKELHFEIVSFSDCTASQIHEVLVSYQSKDHKGKDCFICCILSHGDKGIVYGTDGKEASIYELTSYFTGSKCPSLAGKPKIFFIQACQGNNFQKAVPVPDETGLEQEHVLEEDSSSYKNYIPDEADFLLGMATVKNCVSYRDPTRGTWYIQSLCQSLRERCPRGEDILSILTGVNYDVSNKDNPRNMGKQMPQPIFTLRKKLFFPPN

Molecular target: Apoptosis-associated speck-like protein containing a CARD (rat (endogenous in primary cortical neurons))
Test: co-IP; lysates of rat primary cortical neurons after OGD/R incubated overnight at 4°C with anti-ASC or mouse IgG, protein A/G magnetic beads 2 hours at 4°C, western blot of the eluate

| Binder | binding |
| --- | --- |
| B1 | binds |
| B2 | binds |
